{
  "source": "patent US9012411B2",
  "about": "“Formulations from derivatives of curcumin, paclitaxel, and aspirin” (Organomed Corporation, priority 2009, dated 2015)",
  "test_system": "carrageenan induced rat paw edema",
  "assay": "Carrageenan induced rat paw edema",
  "assay_type": "in vivo, albino rats",
  "settings": "Example 9, 100 mg/kg oral, all time points",
  "note": "Some entries share one result that the patent states for a list of compounds.",
  "data": [
    {"substance": "Curcumin diglutarate [NJ-104-5]", "values": [
      {"measurement": "Percent inhibition of paw edema", "result": "below 50%"}
    ]}
  ]
}
